From the supplement of paper PMC4862054
Most values lie at the level of the controls, where differences are scatter. *1 amine or outer side, *2 acyl side, *3 side chain or, on linkers, in order; H or OH if unused. Where a SMILES comes first, the peptide text is derived from it. Bridges are numbered along the chain shown (N, C = ends). Roman numbers before positions name the chains, in order. [ ]: non-standard residue; d: D form. Actinocin(9to1) = Cc1c2oc3c(C)ccc(C(=O)[*:1])c3nc-2c(C(=O)[*:2])c(N)c1=O; NMeV = CN[C@H](C(=O)O)C(C)C; Sar = CNCC(=O)O

Columns and labels:
Assay in all cases: normalised response (% of control), CellTox Green; higher = less cell death (100 = DMSO, 0 = benzethonium chloride kill control)
Conditions in all cases: incubation time: 72 h
CAL-85-1 [1] = tested on: CAL-85-1
Protocol: (§1)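 DSRT, 72 h incubation, CellTox Green / CellTiter-Glo readout. Signal is normalised to DMSO and benzethonium chloride controls. Value is the normalised response at the lowest tested concentration.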

DU-4475 [2] = tested on: DU-4475
Protocol: as §1

BT-474 [3] = tested on: BT-474
Protocol: as §1

MFM-223 [4] = tested on: MFM-223
Protocol: as §1

MCF-10A [5] = tested on: MCF-10A
Protocol: as §1

MDA-MB-436 [6] = tested on: MDA-MB-436
Protocol: as §1

HCC1143 [7] = tested on: HCC1143
Protocol: as §1

BT-549 [8] = tested on: BT-549
Protocol: as §1

CAL-51 [9] = tested on: CAL-51
Protocol: as §1

MDA-MB-453 [10] = tested on: MDA-MB-453
Protocol: as §1

CAL-148 [11] = tested on: CAL-148
Protocol: as §1

MDA-MB-231 [12] = tested on: MDA-MB-231
Protocol: as §1

HDQ-P1 [13] = tested on: HDQ-P1
Protocol: as §1

HCC1599 [14] = tested on: HCC1599
Protocol: as §1

CAL-120 [15] = tested on: CAL-120
Protocol: as §1

HCC1937 [16] = tested on: HCC1937
Protocol: as §1

Hs578T [17] = tested on: Hs578T
Protocol: as §1

MDA-MB-468 [18] = tested on: MDA-MB-468
Protocol: as §1

CAL-85-1 [19] = tested on: CAL-85-1; remark: listed apart in the source
Protocol: (§2)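 DSRT, 72 h incubation, CellTox Green / CellTiter-Glo readout. Signal is normalised to DMSO and benzethonium chloride controls. Value is the normalised response at dose 2.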

DU-4475 [20] = tested on: DU-4475; remark: listed apart in the source
Protocol: as §2

BT-474 [21] = tested on: BT-474; remark: listed apart in the source
Protocol: as §2

MFM-223 [22] = tested on: MFM-223; remark: listed apart in the source
Protocol: as §2

MCF-10A [23] = tested on: MCF-10A; remark: listed apart in the source
Protocol: as §2

MDA-MB-436 [24] = tested on: MDA-MB-436; remark: listed apart in the source
Protocol: as §2

HCC1143 [25] = tested on: HCC1143; remark: listed apart in the source
Protocol: as §2

BT-549 [26] = tested on: BT-549; remark: listed apart in the source
Protocol: as §2

CAL-51 [27] = tested on: CAL-51; remark: listed apart in the source
Protocol: as §2

MDA-MB-453 [28] = tested on: MDA-MB-453; remark: listed apart in the source
Protocol: as §2

CAL-148 [29] = tested on: CAL-148; remark: listed apart in the source
Protocol: as §2

MDA-MB-231 [30] = tested on: MDA-MB-231; remark: listed apart in the source
Protocol: as §2

HDQ-P1 [31] = tested on: HDQ-P1; remark: listed apart in the source
Protocol: as §2

HCC1599 [32] = tested on: HCC1599; remark: listed apart in the source
Protocol: as §2

CAL-120 [33] = tested on: CAL-120; remark: listed apart in the source
Protocol: as §2

MDA-MB-468 [34] = tested on: MDA-MB-468; remark: listed apart in the source
Protocol: as §2

HCC1937 [35] = tested on: HCC1937; remark: listed apart in the source
Protocol: as §2

Hs578T [36] = tested on: Hs578T; remark: listed apart in the source
Protocol: as §2

SMILES	normalised response (CAL-85-1 [1]) [%]	normalised response (DU-4475 [2]) [%]	normalised response (BT-474 [3]) [%]	normalised response (MFM-223 [4]) [%]	normalised response (MCF-10A [5]) [%]	normalised response (MDA-MB-436 [6]) [%]	normalised response (HCC1143 [7]) [%]	normalised response (BT-549 [8]) [%]	normalised response (CAL-51 [9]) [%]	normalised response (MDA-MB-453 [10]) [%]	normalised response (CAL-148 [11]) [%]	normalised response (MDA-MB-231 [12]) [%]	normalised response (HDQ-P1 [13]) [%]	normalised response (HCC1599 [14]) [%]	normalised response (CAL-120 [15]) [%]	normalised response (HCC1937 [16]) [%]	normalised response (Hs578T [17]) [%]	normalised response (MDA-MB-468 [18]) [%]	normalised response (CAL-85-1 [19]) [%]	normalised response (DU-4475 [20]) [%]	normalised response (BT-474 [21]) [%]	normalised response (MFM-223 [22]) [%]	normalised response (MCF-10A [23]) [%]	normalised response (MDA-MB-436 [24]) [%]	normalised response (HCC1143 [25]) [%]	normalised response (BT-549 [26]) [%]	normalised response (CAL-51 [27]) [%]	normalised response (MDA-MB-453 [28]) [%]	normalised response (CAL-148 [29]) [%]	normalised response (MDA-MB-231 [30]) [%]	normalised response (HDQ-P1 [31]) [%]	normalised response (HCC1599 [32]) [%]	normalised response (CAL-120 [33]) [%]	normalised response (MDA-MB-468 [34]) [%]	normalised response (HCC1937 [35]) [%]	normalised response (Hs578T [36]) [%]
Cc1c2oc3c(C)ccc(C(=O)N[C@@H]4C(=O)N[C@H](C(C)C)C(=O)N5CCC[C@H]5C(=O)N(C)CC(=O)N(C)[C@@H](C(C)C)C(=O)O[C@@H]4C)c3nc-2c(C(=O)N[C@@H]2C(=O)N[C@H](C(C)C)C(=O)N3CCC[C@H]3C(=O)N(C)CC(=O)N(C)[C@@H](C(C)C)C(=O)O[C@@H]2C)c(N)c1=O [Dactinomycin] (0.1 nM) (I: T[dV]P[Sar][NMeV] / II: T[dV]P[Sar][NMeV]; ester I:1-I:C, II:1-II:C; linker I:N-II:N via Actinocin(9to1))	98.6	106	98	103	100	84.4	73.1	94.1	101	106	101	108	84.3	111	103	79	99.5	–	–	–	–	–	–	–	–	–	–	–	–	–	–	–	–	–	–	–
Cc1ccc(F)c(NC(=O)Nc2ccc(-c3cccc4[nH]nc(N)c34)cc2)c1 [Linifanib] (0.1 nM)	99.1	102	102	104	–	94.6	81.1	78.4	69.7	110	105	108	103	101	98.5	121	112	69.7	–	–	–	–	–	–	–	–	–	–	–	–	–	–	–	–	–	–
CN[C@@H](C)C(=O)N[C@H]1CN(C(=O)CC(C)C)CC[C@H]2CC[C@@H](C(=O)NC(c3ccccc3)c3ccccc3)N2C1=O [AT-406] (1 nM)	97.9	106	99.6	99.1	–	–	124	97.1	123	103	94.9	115	71.2	112	104	81.1	101	98.5	–	–	–	–	–	–	–	–	–	–	–	–	–	–	–	–	–	–
COc1cc(OC2CCN(C)CC2)ccc1Nc1ncc2c(n1)n(C1CCCC1)c(=O)n2C [AZ 3146] (1 nM)	104	97.7	96.5	97.9	–	94.7	98.5	102	106	89.3	99.5	105	94.5	93	97.8	–	100	64.4	–	–	–	–	–	–	–	–	–	–	–	–	–	–	–	–	–	–
CC(C)n1nc(-c2ccc3oc(N)nc3c2)c2c(N)ncnc21 [INK128] (0.1 nM)	102	97.8	97.9	102	–	96.7	72.7	95.7	117	79.8	–	80.8	84.2	93.6	98.3	85	107	–	–	–	–	–	–	–	–	–	–	–	–	–	–	–	–	–	–	–
O=C1c2c(O)ccc(O)c2C(=O)c2c(NCCNCCO)ccc(NCCNCCO)c21 [Mitoxantrone] (0.1 nM)	102	103	100	104	–	77.9	121	93.7	115	102	100	110	103	112	104	92.3	104	93.2	–	–	–	–	–	–	–	–	–	–	–	–	–	–	–	–	–	–
CC(C)n1nc(-c2ccc3oc(N)nc3c2)c2c(N)ncnc21 [INK128] (1 nM)	–	–	–	–	–	–	–	–	–	–	–	–	–	–	–	–	–	–	101	97	102	98.8	77	87.5	103	94.7	104	74.8	91.9	95	112	90.3	100	92.5	104	107
Nc1cc(C(F)(F)F)c(-c2cc(N3CCOCC3)nc(N3CCOCC3)n2)cn1 [Buparlisib] (1 nM)	106	97.9	100	86.2	–	84.7	90.3	67	112	91.3	92.2	99.5	97.3	97.3	96.2	63.7	107	–	–	–	–	–	–	–	–	–	–	–	–	–	–	–	–	–	–	–
